Among the data in PMC9980915, “MYCMI-7: A Small MYC-Binding Compound that Inhibits MYC: MAX Interaction and Tumor Growth in a MYC-Dependent Manner” (Cancer Research Communications, 2022) are binding values, retold here.

Sequences of proteins named here, by UniProt entry; tags and fusion partners are left off.
UniProt P05412: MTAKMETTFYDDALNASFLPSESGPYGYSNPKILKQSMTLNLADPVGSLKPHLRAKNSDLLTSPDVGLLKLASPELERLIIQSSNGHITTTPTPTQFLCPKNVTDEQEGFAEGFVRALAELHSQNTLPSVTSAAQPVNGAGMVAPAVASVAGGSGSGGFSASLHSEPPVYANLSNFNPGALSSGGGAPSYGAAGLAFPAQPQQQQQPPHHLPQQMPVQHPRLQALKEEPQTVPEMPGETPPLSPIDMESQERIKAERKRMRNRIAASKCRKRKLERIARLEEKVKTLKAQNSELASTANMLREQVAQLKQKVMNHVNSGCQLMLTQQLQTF

Results are given in words; binding and its absence hold for the method and conditions named. In cells and extracts the contact can be indirect. Some results given as binding are weak or reduced against the parent protein; the word gives no strength.

The target in this test is endogenous JUN (human (endogenous in MCF7)) (UniProt P05412). The test can be described thus: proximity ligation; in situ PLA (Duolink) on methanol-fixed MCF7 cells, endogenous proteins; DMSO or 5 μmol/L MYCMI-7 for 24 h; dots per cell counted.

B1: endogenous FRA1 (protein, UniProt P15407 1-271)
chain: MFRDFGEPGPSSGNGGGYGGPAQPPAAAQAAQQKFHLVPSINTMSGSQELQWMVQPHFLGPSSYPRPLTYPQYSPPQPRPGVIRALGPPPGVRRRPCEQISPEEEERRRVRRERNKLAAAKCRNRRKELTDFLQAETDKLEDEKSGLQREIEELQKQKERLELVLEAHRPICKIPEGAKEGDTGSTSGTSSPPAPCRPVPCISLSPGPVLEPEALHTPTLMTTPSLTPFTPSLVFTYPSTPEPCASAHRKSSSSSGDPSSDPLGSPTLLAL
As for B1, the binding entry is reported as “binds”.
